In patent publication US8309544B2, “Spiroindalones” (Merck Sharp & Dohme Corp., priority 2007, dated 2012):
Some of these results come from one statement about several compounds together.

By UniProt entry, the sequences of proteins in these tests, tags left out. Where a name states a change or a piece, a line headed by the entry shows the natural chain unless it says otherwise.
UniProt Q9GZT9: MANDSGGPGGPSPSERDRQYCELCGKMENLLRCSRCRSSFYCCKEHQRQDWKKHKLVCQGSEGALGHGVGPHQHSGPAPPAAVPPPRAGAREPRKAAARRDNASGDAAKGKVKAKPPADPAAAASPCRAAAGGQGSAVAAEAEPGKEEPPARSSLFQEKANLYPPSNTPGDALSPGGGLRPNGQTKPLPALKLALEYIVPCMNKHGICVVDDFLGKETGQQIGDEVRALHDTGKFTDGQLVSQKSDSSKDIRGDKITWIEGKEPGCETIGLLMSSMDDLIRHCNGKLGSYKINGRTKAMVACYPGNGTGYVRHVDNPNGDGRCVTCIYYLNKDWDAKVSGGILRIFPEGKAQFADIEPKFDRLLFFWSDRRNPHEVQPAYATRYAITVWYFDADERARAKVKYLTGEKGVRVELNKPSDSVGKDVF

biological target: T1, FLAG-tagged full length PHD2 (Homo sapiens, UniProt Q9GZT9); experiment: PHD2 inhibition assay, time resolved fluorescence (HIF-1α peptide hydroxylation / VHL complex detection); assay type: biochemical; details: 0.2 μM 2-oxoglutarate and 0.5 μM HIF-1α peptide; 30 min preincubation, 2 hr at room temperature
T1 construct: FLAG-tagged full length PHD2; FLAG; made in house; host or cells: baculovirus-infected Sf9 cells

IC50, ≤ 1 µM:
O=C1N(c2ccc(-c3ccccc3)cc2)c2ccccc2C12CCN(Cc1ncccc1C(F)(F)F)CC2 [Example 49, 1-biphenyl-4-yl-1′-{[3-(trifluoromethyl)pyridin-2-yl]methyl}spiro[indole-3,4′-piperidin]-2H-one]
Cc1cccnc1CN1CCC2(CC1)C(=O)N(c1ccc(Br)cc1)c1ccccc12 [Example 10, 1-(4-bromophenyl)-1′[(3-methylpyridin-2-yl)methyl]spiro[indole-3,4′-piperidin]-2(1H)-one]
Cc1cccnc1CN1CCC2(CC1)C(=O)N(c1sc(-c3ccccc3)nc1C)c1ccccc12 [Example 67, 1-(4-methyl-2-phenyl-1,3-thiazol-5-yl)-1′-[(3-methylpyridin-2-yl)methyl]spiro[indole-3,4′-piperidin]-2(1H)-one]
CN(C)c1ccc(N2C(=O)C3(CCN(Cc4nccn4C)CC3)c3ccccc32)cn1 [Example 41, 1-[6-(dimethylamino)pyridin-3-yl]-1′-[(1-methyl-1H-imidazol-2-yl)methyl]spiro[indole-3,4′-piperidin]-2(1H)-one]
Cc1cccnc1CN1CCC2(CC1)C(=O)N(c1ccc(-c3ccccc3)s1)c1ccccc12 [Example 65, 1′-[(3-methylpyridin-2-yl)methyl]-1-(5-phenyl-2-thienyl)spiro[indole-3,4′-piperidin]-2(1H)-one]
O=C1N(c2ccc(-c3ccncc3)cc2)c2ccccc2C12CCN(Cc1ncc[nH]1)CC2 [Example 60, 1′-(1H-imidazol-2-ylmethyl)-1-(4-pyridin-4-ylphenyl)spiro[indole-3,4′-piperidin]-2(1H)-one]
Cc1cccnc1CN1CCC2(CC1)C(=O)N(c1ccc(-c3cccc(C#N)c3)cc1)c1ccccc12 [Example 28, 4′-[1′-[(3-methylpyridin-2-yl)methyl]-2-oxospiro[indole-3,4′-piperidin]-1(2H)-yl]biphenyl-3-carbonitrile]
Cn1ccnc1CN1CCC2(CC1)C(=O)N(c1ccc(C3CC3)nc1)c1ccccc12 [Example 30, 1-(6-cyclopropylpyridin-3-yl)-1′-[(1-methyl-1H-imidazol-2-yl)methyl]spiro[indole-3,4′-piperidin]-2(1H)-one]
O=C(O)c1cccnc1CN1CCC2(CC1)C(=O)N(c1ccc(-c3ccncc3)cc1)c1ccccc12 [Example 55, 2-{[2-oxo-1-(4-pyridin-4-ylphenyl)-1,2-dihydro-1′H-spiro[indole-3,4′-piperidin]-1′-yl]methyl}nicotinic acid]
COc1ccc(N2C(=O)C3(CCN(Cc4nccn4C)CC3)c3ccccc32)cn1 [Example 39, 1-(6-methoxypyridin-3-yl)-1′-[(1-methyl-1H-imidazol-2-yl)methyl]spiro[indole-3,4′-piperidin]-2(1H)-one]
